# Reference: PubChem BioAssay AID200 (DTP/NCI, 2004)
# The list is a part of this screen's results and no random one: it is rich in T/C values a quarter to a half above the control, in often repeated tests (any T/C) and in doses without a T/C. Further doses and runs are listed elsewhere. T/C: endpoint of the treated group in % of that of the vehicle group. Some doses have a count of surviving animals in place of a T/C: the source files T/C as zero there, which appears to mark a toxic dose or a test without result, not a measured value. Some doses without a T/C left all or most animals alive at the check, yet need not have been tolerated: survival well below the control is almost never listed, so the zero probably covers shortened survival too. Survivors were counted at the toxicity check, usually on the fifth day, unless a day is given; later deaths do not show. Schedules are NCI's codes, taken here to give the interval after Q, in days (D) or hours (H), and the number of doses after X. Additions like (4×) say how often a value occurs here. Some entries hold several experiments; the values are given in rising order. Some molecules as drawn cover several salts, stereoisomers or complexes of the source; a dose is that of the sample tested. Where survival is the endpoint, this PubChem deposit counts one and a half times the control or more as active, and values a quarter to a half above the control carry no call in these data; other NCI protocols may use other cut-offs. Some T/C values carry the count of animals alive at the toxicity check (mostly the fifth day); where none is given, no animal had died by that day.
# System: B6C3F1 mice, B16 melanoma ip, median survival T/C
# Assay: NCI In Vivo Anticancer Drug Screen. Data for tumor model B16 Melanoma (intraperitoneal) in B6C3F1 mice
# Settings: T/C endpoint: median survival time, higher T/C = longer survival
# Method in brief: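 Transplantable tumor in mice; treated vs vehicle control groups; survival or tumor size measured; value = T/C ratio.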
# [1] = dose: 400.0 mg/kg/injection, schedule: Q01DX009 (ip), vehicle: saline with Tween-80
# [2] = dose: 400.0 mg/kg/injection, schedule: Q01DX009 (ip), vehicle: saline
# [3] = dose: 100.0 mg/kg/injection, schedule: Q01DX009 (ip), vehicle: distilled water + Tween-80
# [4] = dose: 6.25 mg/kg/injection, schedule: Q01DX009 (ip), vehicle: Klucel (hydroxypropylcellulose) (HPC)
# [5] = dose: 12.5 mg/kg/injection, schedule: Q01DX009 (ip), vehicle: Klucel (hydroxypropylcellulose) (HPC)
# [6] = dose: 25.0 mg/kg/injection, schedule: Q01DX009 (ip), vehicle: Klucel (hydroxypropylcellulose) (HPC)
# [7] = dose: 100.0 mg/kg/injection, schedule: Q01DX009 (ip), vehicle: Klucel (hydroxypropylcellulose) (HPC)
# [8] = dose: 12.0 mg/kg/injection, schedule: Q01DX009 (ip), vehicle: distilled water + Tween-80
# [9] = dose: 0.5 mg/kg/injection, schedule: Q01DX009 (ip), vehicle: saline + alcohol
# [10] = dose: 1.0 mg/kg/injection, schedule: Q01DX009 (ip), vehicle: saline + alcohol
# [11] = dose: 2.0 mg/kg/injection, schedule: Q01DX009 (ip), vehicle: saline + alcohol
# [12] = dose: 3.0 mg/kg/injection, schedule: Q01DX009 (ip), vehicle: Klucel (hydroxypropylcellulose) (HPC)
smiles,measurement,setting,value
COc1cccc2c1C(=O)c1c(O)c3c(c(O)c1C2=O)C[C@@](O)(/C(CO)=N/NC(=O)c1ccc(Cl)c(Cl)c1)C[C@@H]3OC1CC(N)C(O)C(C)O1 (some centres not stated),T/C,"dose: 0.5 mg/kg/injection, schedule: Q01DX009 (ip), vehicle: saline",136 % of control
CCCCCC#CC1OC12CCCCC2 (configuration not stated),survivor count,[1],8 of 10
same,survivor count,[2],8 of 10
COc1cc2c(cc1OC)-c1c3c(cc4c1[C@@H](C2)N(C)CC4)OCO3,survivor count,[3],10 of 10
CNC(=O)OCc1c(COC(=O)NC)c(C)n(-c2ccc(OC)cc2)c1C,T/C,[4],133 % of control
same,T/C,[5],136 % of control
same,T/C,[6],140 % of control
same,survivor count,[7],10 of 10
CC(CNC(=O)CCOS(C)(=O)=O)NC(=O)CCOS(C)(=O)=O (configuration not stated),T/C,"dose: 50.0 mg/kg/injection, schedule: Q01DX009 (ip), vehicle: saline",132 % of control
same,T/C,"dose: 100.0 mg/kg/injection, schedule: Q01DX009 (ip), vehicle: saline",132 % of control [7 of 9 alive]
same,survivor count,[2],10 of 10 and 9 of 9
C#CCNC1=C(C)C(=O)C2=C(C1=O)[C@H](COC(N)=O)[C@]1(OC)[C@@H]3N[C@@H]3CN21,T/C,"dose: 0.75 mg/kg/injection, schedule: Q01DX009 (ip), vehicle: distilled water + Tween-80",145 % of control
same,T/C,"dose: 1.5 mg/kg/injection, schedule: Q01DX009 (ip), vehicle: distilled water + Tween-80",131 and 143 % of control
same,T/C,[8],134 % of control
same,survivor count,[8],10 of 10
same,survivor count,"dose: 12.5 mg/kg/injection, schedule: Q01DX009 (ip), vehicle: distilled water + Tween-80",10 of 10
same,survivor count,"dose: 25.0 mg/kg/injection, schedule: Q01DX009 (ip), vehicle: distilled water + Tween-80",10 of 10
same,survivor count,"dose: 50.0 mg/kg/injection, schedule: Q01DX009 (ip), vehicle: distilled water + Tween-80",6 of 10
same,survivor count,[3],0 of 10
CC(O)CCC(=O)c1ccoc1 (configuration not stated),survivor count,"dose: 40.0 mg/kg/injection, schedule: Q01DX009 (ip), vehicle: saline",0 of 10
same,survivor count,"dose: 80.0 mg/kg/injection, schedule: Q01DX009 (ip), vehicle: saline",0 of 10
Nc1ncnc2c1ncn2C1OC(CO)CC1O (configuration not stated),T/C,"dose: 150.0 mg/kg/injection, schedule: Q01DX009 (ip), vehicle: Klucel (hydroxypropylcellulose) (HPC)",132 % of control
same,survivor count,"dose: 300.0 mg/kg/injection, schedule: Q01DX009 (ip), vehicle: Klucel (hydroxypropylcellulose) (HPC)",10 of 10
COC(=O)[C@@]12OC[C@]34[C@H]([C@@H](O)[C@@H]1O)[C@@]1(C)CC(=O)C(O)=C(C)[C@@H]1C[C@H]3OC(=O)[C@H](OC(=O)/C=C(\C)C(C)C)[C@@H]24,T/C,"dose: 0.06 mg/kg/injection, schedule: Q01DX009 (ip), vehicle: saline + alcohol",132 % of control
same,T/C,"dose: 0.12 mg/kg/injection, schedule: Q01DX009 (ip), vehicle: saline + alcohol",134 % of control
same,T/C,"dose: 0.25 mg/kg/injection, schedule: Q01DX009 (ip), vehicle: saline + alcohol","143, 158, 174, 175, 179, 183 % of control"
same,T/C,[9],"160, 163 (2×), 172 [9 of 10 alive], 190 % of control"
same,survivor count,[9],7 of 10
same,T/C,[10],"161, 164 [8 of 9 alive], 172, 184, 191 % of control"
same,survivor count,[10],7 of 10
same,T/C,[11],"158, 183, 183 [8 of 9 alive], 187 % of control"
same,survivor count,[11],3 of 10 and 8 of 10
same,survivor count,"dose: 4.0 mg/kg/injection, schedule: Q01DX009 (ip), vehicle: saline + alcohol","0 of 10, 1 of 10, 4 of 10"
Nc1nc(Br)nc2c1ncn2C1CC(O)C(CO)O1 (configuration not stated),survivor count,"dose: 120.0 mg/kg/injection, schedule: Q03HX009 (ip), vehicle: saline",8 of 10
CC(C)NC(=O)OCc1c(COC(=O)NC(C)C)c(-c2ccc(Cl)c(Cl)c2)n2c1CC(OC(=O)CN(C)C)C2 (configuration not stated),survivor count,"dose: 80.0 mg/kg/injection, schedule: Q01DX009 (ip), vehicle: distilled water + Tween-80",10 of 10 (2×)
same,survivor count,"dose: 160.0 mg/kg/injection, schedule: Q01DX009 (ip), vehicle: distilled water + Tween-80",8 of 10
Nc1nc(N)c2cc(CNc3ccc(C(=O)NC(CC(=O)O)CC(=O)O)cc3)ccc2n1,survivor count,"dose: 0.19 mg/kg/injection, schedule: Q01DX009 (ip), vehicle: Klucel (hydroxypropylcellulose) (HPC)",10 of 10
same,survivor count,"dose: 0.78 mg/kg/injection, schedule: Q01DX009 (ip), vehicle: Klucel (hydroxypropylcellulose) (HPC)",10 of 10
same,survivor count,"dose: 1.56 mg/kg/injection, schedule: Q01DX009 (ip), vehicle: Klucel (hydroxypropylcellulose) (HPC)",10 of 10
CC[C@@]1(O)C(=O)OCc2c1cc1n(c2=O)Cc2cc3ccccc3nc2-1,T/C,"dose: 0.19 mg/kg/injection, schedule: Q01DX009 (ip), vehicle: other",129 % of control
same,T/C,"dose: 0.38 mg/kg/injection, schedule: Q01DX009 (ip), vehicle: other",137 % of control
same,T/C,"dose: 0.75 mg/kg/injection, schedule: Q01DX009 (ip), vehicle: other",149 % of control
same,T/C,"dose: 0.75 mg/kg/injection, schedule: Q01DX009 (ip), vehicle: saline with Tween-80",149 % of control
same,survivor count,"dose: 1.5 mg/kg/injection, schedule: Q01DX009 (ip), vehicle: other",10 of 10
same,survivor count,"dose: 3.0 mg/kg/injection, schedule: Q01DX009 (ip), vehicle: other",7 of 10
same,survivor count,"dose: 6.0 mg/kg/injection, schedule: Q01DX009 (ip), vehicle: saline with Tween-80",10 of 10
same,survivor count,"dose: 12.0 mg/kg/injection, schedule: Q01DX009 (ip), vehicle: saline with Tween-80",10 of 10
Cc1cc(O)c2c(c1O)C(=O)C13C(=C2O)C(=O)C2C(O)C1C1C(O)C3C(=O)C3=C(O)c4c(O)cc(C)c(O)c4C(=O)C321 (configuration not stated),T/C,"dose: 0.78 mg/kg/injection, schedule: Q01DX009 (ip), vehicle: saline with Tween-80",136 % of control
same,T/C,"dose: 1.56 mg/kg/injection, schedule: Q01DX009 (ip), vehicle: saline with Tween-80",148 % of control
same,survivor count,"dose: 3.12 mg/kg/injection, schedule: Q01DX009 (ip), vehicle: saline with Tween-80",10 of 10 and 8 of 8
C[C@H](N)C(=O)N[C@@H]1[C@H]2C(=C(O)C[C@@H](O)[C@@H]2O)C(=O)O[C@]1(C)C(Cl)Cl,T/C,[12],124 % of control
same,survivor count,[12],"7 of 10, 10 of 10, 9 of 9"
same,survivor count,"dose: 6.0 mg/kg/injection, schedule: Q01DX009 (ip), vehicle: Klucel (hydroxypropylcellulose) (HPC)",4 of 10 and 8 of 10
same,survivor count,[4],0 of 10
same,survivor count,[5],0 of 10
same,survivor count,[6],0 of 10
same,survivor count,"dose: 50.0 mg/kg/injection, schedule: Q01DX009 (ip), vehicle: Klucel (hydroxypropylcellulose) (HPC)",0 of 10
same,survivor count,[7],0 of 10
Clc1ccc(CN2COc3c(ccc4cccnc34)C2)cc1Cl,survivor count,"dose: 100.0 mg/kg/injection, schedule: Q01DX009 (ip), vehicle: saline with Tween-80",10 of 10
same,survivor count,"dose: 200.0 mg/kg/injection, schedule: Q01DX009 (ip), vehicle: saline with Tween-80",7 of 10
same,survivor count,[1],8 of 10
COc1cc(NCc2ccc3nc(N)nc(N)c3c2C)cc(OC)c1OC,T/C,"dose: 20.0 mg/kg/injection, schedule: Q01DX009 (ip), vehicle: sodium bicarbonate",130 % of control
same,T/C,"dose: 40.0 mg/kg/injection, schedule: Q01DX009 (ip), vehicle: sodium bicarbonate",128 % of control
same,T/C,"dose: 50.0 mg/kg/injection, schedule: Q01DX009 (ip), vehicle: water",127 % of control
same,survivor count,"dose: 80.0 mg/kg/injection, schedule: Q01DX009 (ip), vehicle: sodium bicarbonate",10 of 10
same,survivor count,"dose: 100.0 mg/kg/injection, schedule: Q01DX009 (ip), vehicle: water",5 of 5
same,survivor count,"dose: 200.0 mg/kg/injection, schedule: Q01DX009 (ip), vehicle: water",2 of 10
